Measured data: PubChem BioAssay AID1259405 (NCATS, 2018)
Here is a random part of about 50,000 deposited reagents. In the full data, about 4,000 (8%) are marked active. 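Mouse siRNA library applied to hamster cells; one well for each siRNA.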 The numbers tell different reagents against one gene apart. Reagent sequences are not shown.

- Aim: 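Silenced genes that increase secreted GFP made by CHO cells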 (primary screen)
- Cell system: Chinese hamster CHO-K1 ovary cells with stable secreted eGFP expression
- Knock-down reagent: single siRNA against mouse genes, 0.8 pmol siRNA per well (2 µl of 400 nM stock)
- Time to read-out: 3 days
- Measured: 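Percent of the per-plate non-targeting control median for intracellular GFP per well by laser scanning cytometry and for cell viability by ATP luminescence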
- Direction: GFP, % of control: higher = more GFP per well, higher productivity; viability (ATP), % of control: higher = more viable cells (more ATP)
- Active means: 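Called active when intracellular GFP, relative to negative control, is at or above 120%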

gene symbol	reagent	GFP, % of control	viability (ATP), % of control	outcome
Gm11992 (predicted gene 11992)	1	61.6	73.4	inactive
Gm11992 (predicted gene 11992)	2	84.5	58.6	inactive
Gm11992 (predicted gene 11992)	3	60.7	65.1	inactive
Foxr2 (forkhead box R2)	1	56.9	58	inactive
Foxr2 (forkhead box R2)	2	71.7	80.2	inactive
Foxr2 (forkhead box R2)	3	98.9	64.1	inactive
Fscn1 (fascin actin-bundling protein 1)	1	73.7	69.7	inactive
Fscn1 (fascin actin-bundling protein 1)	2	82.1	73.9	inactive
Fscn1 (fascin actin-bundling protein 1)	3	61	83.1	inactive
Cdnf (cerebral dopamine neurotrophic factor)	1	89.6	79.1	inactive
Cdnf (cerebral dopamine neurotrophic factor)	2	62.6	54.7	inactive
Cdnf (cerebral dopamine neurotrophic factor)	3	89	112	inactive
Lyve1 (lymphatic vessel endothelial hyaluronan receptor 1)	1	75.3	86.4	inactive
Lyve1 (lymphatic vessel endothelial hyaluronan receptor 1)	2	105	88.7	inactive
Lyve1 (lymphatic vessel endothelial hyaluronan receptor 1)	3	79.3	93.1	inactive
Asic2 (acid-sensing ion channel 2)	1	74	61.1	inactive
Asic2 (acid-sensing ion channel 2)	2	80.1	43.3	inactive
Asic2 (acid-sensing ion channel 2)	3	76.1	78.7	inactive
Mb21d2 (Mab-21 domain containing 2)	1	34.8	25.3	inactive
Mb21d2 (Mab-21 domain containing 2)	2	72.7	56.9	inactive
Mb21d2 (Mab-21 domain containing 2)	3	74.8	66.3	inactive
Apod (apolipoprotein D)	1	162	105	active
Apod (apolipoprotein D)	2	207	102	active
Apod (apolipoprotein D)	3	58.7	70.9	inactive
Ints6l (integrator complex subunit 6 like)	1	45.7	26.6	inactive
Ints6l (integrator complex subunit 6 like)	2	91.3	104	inactive
Ints6l (integrator complex subunit 6 like)	3	66.2	78.5	inactive
Mrm1 (mitochondrial rRNA methyltransferase 1)	1	47	41	inactive
Mrm1 (mitochondrial rRNA methyltransferase 1)	2	57.8	68.9	inactive
Mrm1 (mitochondrial rRNA methyltransferase 1)	3	57.9	63.3	inactive
Ppp2r5b (protein phosphatase 2, regulatory subunit B', beta)	1	206	85.1	active
Ppp2r5b (protein phosphatase 2, regulatory subunit B', beta)	2	86.9	70.9	inactive
Ppp2r5b (protein phosphatase 2, regulatory subunit B', beta)	3	58.5	64	inactive
Fut7 (fucosyltransferase 7)	1	89.6	96.1	inactive
Fut7 (fucosyltransferase 7)	2	105	132	inactive
Fut7 (fucosyltransferase 7)	3	99.2	128	inactive
Rbmx (RNA binding motif protein, X chromosome)	1	78	93.3	inactive
Rbmx (RNA binding motif protein, X chromosome)	2	66.3	93.9	inactive
Nuak2 (NUAK family, SNF1-like kinase, 2)	1	86.9	80.6	inactive
Or11g2 (olfactory receptor family 11 subfamily G member 2)	1	210	113	active
Or11g2 (olfactory receptor family 11 subfamily G member 2)	2	159	100	active
Or11g2 (olfactory receptor family 11 subfamily G member 2)	3	79.6	79.7	inactive

Active calls, of those listed so far:
gene symbol	reagent	GFP, % of control	viability (ATP), % of control	outcome
Apod (apolipoprotein D)	1	162	105	active
Apod (apolipoprotein D)	2	207	102	active
Ppp2r5b (protein phosphatase 2, regulatory subunit B', beta)	1	206	85.1	active
Or11g2 (olfactory receptor family 11 subfamily G member 2)	1	210	113	active
Or11g2 (olfactory receptor family 11 subfamily G member 2)	2	159	100	active

The results go on.
gene symbol	reagent	GFP, % of control	viability (ATP), % of control	outcome
Or52n2b (olfactory receptor family 52 subfamily N member 2B)	1	97.6	79.1	inactive
Or52n2b (olfactory receptor family 52 subfamily N member 2B)	2	95	58.6	inactive
Or52n2b (olfactory receptor family 52 subfamily N member 2B)	3	66.7	93	inactive
Hsf3 (heat shock transcription factor 3)	1	76.8	77.4	inactive
Hsf3 (heat shock transcription factor 3)	2	31	72	inactive
Hsf3 (heat shock transcription factor 3)	3	64.9	81.5	inactive
Prxl2b (peroxiredoxin like 2B)	1	147	105	active
Prxl2b (peroxiredoxin like 2B)	2	59.1	31.6	inactive
Prxl2b (peroxiredoxin like 2B)	3	61.9	74.1	inactive
Pcsk1n (proprotein convertase subtilisin/kexin type 1 inhibitor)	1	51	71.9	inactive
Pcsk1n (proprotein convertase subtilisin/kexin type 1 inhibitor)	2	64	81.3	inactive
Pcsk1n (proprotein convertase subtilisin/kexin type 1 inhibitor)	3	95.2	97.2	inactive
Tm6sf1 (transmembrane 6 superfamily member 1)	1	99.7	68.1	inactive
Tm6sf1 (transmembrane 6 superfamily member 1)	2	54.8	50.4	inactive
Tm6sf1 (transmembrane 6 superfamily member 1)	3	81.5	56.9	inactive
Rangap1 (RAN GTPase activating protein 1)	1	95.5	95.9	inactive
Rangap1 (RAN GTPase activating protein 1)	2	41.2	45.3	inactive
Rangap1 (RAN GTPase activating protein 1)	3	47.6	68.8	inactive
Mab21l3 (mab-21-like 3)	1	58.1	66.4	inactive
Mab21l3 (mab-21-like 3)	2	76.9	93.2	inactive
Mab21l3 (mab-21-like 3)	3	89.1	85.6	inactive
Cmtm6 (CKLF-like MARVEL transmembrane domain containing 6)	1	125	97.6	active
Cmtm6 (CKLF-like MARVEL transmembrane domain containing 6)	2	77.4	72.1	inactive
Cmtm6 (CKLF-like MARVEL transmembrane domain containing 6)	3	130	115	active
Usp46 (ubiquitin specific peptidase 46)	1	75.5	91.6	inactive
Usp46 (ubiquitin specific peptidase 46)	2	79.6	70.5	inactive
Usp46 (ubiquitin specific peptidase 46)	3	101	67.4	inactive
Xkr7 (XK related 7)	1	35.5	90.8	inactive
Xkr7 (XK related 7)	2	82.1	67.3	inactive
Xkr7 (XK related 7)	3	78	90.2	inactive
Trim26 (tripartite motif-containing 26)	1	62.8	52.7	inactive
Trim26 (tripartite motif-containing 26)	2	112	91	inactive
Trim26 (tripartite motif-containing 26)	3	83.4	107	inactive
Or2b4 (olfactory receptor family 2 subfamily B member 4)	1	88.1	45.1	inactive
Or2b4 (olfactory receptor family 2 subfamily B member 4)	2	43.8	61	inactive
Or2b4 (olfactory receptor family 2 subfamily B member 4)	3	44	63.3	inactive
Or10aa1 (olfactory receptor family 10 subfamily AA member 1)	1	51.1	53.9	inactive
Or10aa1 (olfactory receptor family 10 subfamily AA member 1)	2	58.7	84.7	inactive
Or10aa1 (olfactory receptor family 10 subfamily AA member 1)	3	62.2	79.7	inactive
Tmed11 (transmembrane p24 trafficking protein 11)	1	45.7	70.3	inactive
Tmed11 (transmembrane p24 trafficking protein 11)	2	77.4	89.4	inactive
Tmed11 (transmembrane p24 trafficking protein 11)	3	25.8	56	inactive
